Common to all, as to assay: co-IP; endogenous proteins in whole cell lysates of Jurkat T cells (also mock-infected controls) stimulated with plate-bound anti-human CD3ε and anti-human CD28 for the indicated times; 1% NP-40 lysis buffer (10 mM Tris-HCl pH 7.8, 0.5 mM EDTA, 250 mM NaCl); 2 μg antibody overnight at 4°C, protein G-sepharose; immunoblot
For orientation: In western blotting, separated proteins are transferred to a membrane and probed.

Sequences of proteins named here, by UniProt entry; tags and fusion partners are left off. A change or cut given only in a name is not applied to a line headed by its entry. Residues count along the entry.
UniProt P46531: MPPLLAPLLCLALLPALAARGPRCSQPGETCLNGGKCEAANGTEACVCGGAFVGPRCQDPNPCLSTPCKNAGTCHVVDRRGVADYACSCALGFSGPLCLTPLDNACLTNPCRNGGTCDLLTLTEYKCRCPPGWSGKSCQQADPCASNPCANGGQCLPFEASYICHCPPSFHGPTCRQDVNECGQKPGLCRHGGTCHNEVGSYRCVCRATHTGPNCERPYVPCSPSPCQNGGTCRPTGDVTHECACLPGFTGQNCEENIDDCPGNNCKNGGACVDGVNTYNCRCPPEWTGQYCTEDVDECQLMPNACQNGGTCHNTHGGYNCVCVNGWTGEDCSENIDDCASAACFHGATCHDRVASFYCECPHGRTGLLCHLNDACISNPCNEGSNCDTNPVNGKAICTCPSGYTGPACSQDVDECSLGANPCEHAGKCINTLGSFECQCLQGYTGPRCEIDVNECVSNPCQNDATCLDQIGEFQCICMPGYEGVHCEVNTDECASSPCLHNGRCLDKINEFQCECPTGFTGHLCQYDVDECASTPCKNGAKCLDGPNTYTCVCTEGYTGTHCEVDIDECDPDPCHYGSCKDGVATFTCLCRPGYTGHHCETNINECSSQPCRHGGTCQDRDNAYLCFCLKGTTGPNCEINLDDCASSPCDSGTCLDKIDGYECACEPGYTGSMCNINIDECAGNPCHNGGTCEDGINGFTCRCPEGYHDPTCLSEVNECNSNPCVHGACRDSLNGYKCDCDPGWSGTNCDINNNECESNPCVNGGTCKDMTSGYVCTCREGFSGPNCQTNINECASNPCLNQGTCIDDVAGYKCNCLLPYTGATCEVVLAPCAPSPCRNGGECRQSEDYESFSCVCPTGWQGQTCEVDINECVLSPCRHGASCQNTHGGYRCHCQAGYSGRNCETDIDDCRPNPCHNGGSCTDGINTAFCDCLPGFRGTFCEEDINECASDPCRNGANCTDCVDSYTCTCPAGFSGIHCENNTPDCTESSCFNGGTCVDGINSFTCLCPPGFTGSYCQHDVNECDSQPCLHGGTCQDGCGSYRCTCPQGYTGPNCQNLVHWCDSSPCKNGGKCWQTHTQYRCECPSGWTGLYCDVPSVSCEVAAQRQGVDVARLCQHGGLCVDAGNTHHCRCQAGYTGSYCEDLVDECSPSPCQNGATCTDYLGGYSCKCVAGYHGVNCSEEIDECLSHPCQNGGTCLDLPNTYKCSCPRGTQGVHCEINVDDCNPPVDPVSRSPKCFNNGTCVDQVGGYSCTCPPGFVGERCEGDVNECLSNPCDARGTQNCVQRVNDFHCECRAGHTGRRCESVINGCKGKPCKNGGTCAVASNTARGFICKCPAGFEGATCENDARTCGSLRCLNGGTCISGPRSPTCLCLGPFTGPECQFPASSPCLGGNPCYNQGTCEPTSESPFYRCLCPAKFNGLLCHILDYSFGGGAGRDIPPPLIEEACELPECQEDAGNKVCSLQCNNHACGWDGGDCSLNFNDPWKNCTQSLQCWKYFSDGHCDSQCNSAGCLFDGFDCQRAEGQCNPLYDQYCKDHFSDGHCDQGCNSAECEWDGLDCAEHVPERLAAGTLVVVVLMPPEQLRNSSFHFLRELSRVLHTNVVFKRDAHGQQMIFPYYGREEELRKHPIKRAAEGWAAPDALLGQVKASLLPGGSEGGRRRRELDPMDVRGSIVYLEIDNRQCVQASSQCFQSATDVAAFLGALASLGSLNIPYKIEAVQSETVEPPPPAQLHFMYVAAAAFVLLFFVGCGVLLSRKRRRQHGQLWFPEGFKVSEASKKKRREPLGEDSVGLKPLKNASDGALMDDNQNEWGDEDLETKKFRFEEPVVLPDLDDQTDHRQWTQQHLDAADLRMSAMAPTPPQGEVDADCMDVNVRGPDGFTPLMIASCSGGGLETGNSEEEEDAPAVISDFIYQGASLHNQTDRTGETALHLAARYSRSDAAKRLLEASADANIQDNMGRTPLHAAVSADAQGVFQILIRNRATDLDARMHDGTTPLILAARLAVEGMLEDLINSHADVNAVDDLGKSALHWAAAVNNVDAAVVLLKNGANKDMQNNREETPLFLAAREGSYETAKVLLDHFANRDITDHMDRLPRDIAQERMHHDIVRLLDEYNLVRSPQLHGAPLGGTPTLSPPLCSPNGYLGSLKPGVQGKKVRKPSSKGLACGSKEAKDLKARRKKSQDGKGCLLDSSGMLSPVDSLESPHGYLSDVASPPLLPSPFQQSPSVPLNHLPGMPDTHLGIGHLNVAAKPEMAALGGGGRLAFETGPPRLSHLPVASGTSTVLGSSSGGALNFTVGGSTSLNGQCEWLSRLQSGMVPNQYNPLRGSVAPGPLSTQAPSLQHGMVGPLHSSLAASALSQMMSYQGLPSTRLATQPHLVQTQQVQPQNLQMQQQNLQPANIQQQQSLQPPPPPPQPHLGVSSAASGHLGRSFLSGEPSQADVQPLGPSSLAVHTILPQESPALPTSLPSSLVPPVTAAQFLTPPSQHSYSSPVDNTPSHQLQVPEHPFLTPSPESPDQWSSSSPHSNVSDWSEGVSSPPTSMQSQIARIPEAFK
NOTCH1 (human (endogenous in Jurkat)): residues 19-2555 of P46531
UniProt Q04759: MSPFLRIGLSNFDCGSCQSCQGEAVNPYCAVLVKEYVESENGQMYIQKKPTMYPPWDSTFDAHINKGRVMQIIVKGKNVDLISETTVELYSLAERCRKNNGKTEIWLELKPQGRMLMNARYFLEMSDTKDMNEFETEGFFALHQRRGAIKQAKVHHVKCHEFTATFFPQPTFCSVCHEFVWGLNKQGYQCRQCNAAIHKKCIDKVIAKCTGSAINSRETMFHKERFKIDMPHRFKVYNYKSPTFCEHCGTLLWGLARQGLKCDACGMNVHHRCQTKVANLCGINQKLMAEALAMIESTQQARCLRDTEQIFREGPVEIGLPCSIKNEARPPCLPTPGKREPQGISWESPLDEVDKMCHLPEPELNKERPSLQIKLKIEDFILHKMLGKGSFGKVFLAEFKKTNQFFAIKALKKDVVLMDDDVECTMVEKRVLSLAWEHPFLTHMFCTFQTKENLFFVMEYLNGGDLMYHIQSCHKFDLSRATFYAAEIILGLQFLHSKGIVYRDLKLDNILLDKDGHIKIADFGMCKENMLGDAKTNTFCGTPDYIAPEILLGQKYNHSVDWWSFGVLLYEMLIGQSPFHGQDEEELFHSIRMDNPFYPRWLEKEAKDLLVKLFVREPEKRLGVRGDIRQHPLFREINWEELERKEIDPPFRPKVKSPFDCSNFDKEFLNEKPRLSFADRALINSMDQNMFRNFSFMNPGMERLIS

Experiment [1] concerns the target T1, BCL10 (human (endogenous in Jurkat)) (UniProt O95999).
T1 sequence: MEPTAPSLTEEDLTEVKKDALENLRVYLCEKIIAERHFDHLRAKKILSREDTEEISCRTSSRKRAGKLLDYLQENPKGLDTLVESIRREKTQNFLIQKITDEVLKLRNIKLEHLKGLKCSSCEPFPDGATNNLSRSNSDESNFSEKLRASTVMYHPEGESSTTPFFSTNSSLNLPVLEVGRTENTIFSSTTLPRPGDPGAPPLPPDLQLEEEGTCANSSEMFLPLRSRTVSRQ

Experiment [2] concerns the target T2, CARMA1 (human (endogenous in Jurkat)) (UniProt Q9BXL7).
T2 sequence: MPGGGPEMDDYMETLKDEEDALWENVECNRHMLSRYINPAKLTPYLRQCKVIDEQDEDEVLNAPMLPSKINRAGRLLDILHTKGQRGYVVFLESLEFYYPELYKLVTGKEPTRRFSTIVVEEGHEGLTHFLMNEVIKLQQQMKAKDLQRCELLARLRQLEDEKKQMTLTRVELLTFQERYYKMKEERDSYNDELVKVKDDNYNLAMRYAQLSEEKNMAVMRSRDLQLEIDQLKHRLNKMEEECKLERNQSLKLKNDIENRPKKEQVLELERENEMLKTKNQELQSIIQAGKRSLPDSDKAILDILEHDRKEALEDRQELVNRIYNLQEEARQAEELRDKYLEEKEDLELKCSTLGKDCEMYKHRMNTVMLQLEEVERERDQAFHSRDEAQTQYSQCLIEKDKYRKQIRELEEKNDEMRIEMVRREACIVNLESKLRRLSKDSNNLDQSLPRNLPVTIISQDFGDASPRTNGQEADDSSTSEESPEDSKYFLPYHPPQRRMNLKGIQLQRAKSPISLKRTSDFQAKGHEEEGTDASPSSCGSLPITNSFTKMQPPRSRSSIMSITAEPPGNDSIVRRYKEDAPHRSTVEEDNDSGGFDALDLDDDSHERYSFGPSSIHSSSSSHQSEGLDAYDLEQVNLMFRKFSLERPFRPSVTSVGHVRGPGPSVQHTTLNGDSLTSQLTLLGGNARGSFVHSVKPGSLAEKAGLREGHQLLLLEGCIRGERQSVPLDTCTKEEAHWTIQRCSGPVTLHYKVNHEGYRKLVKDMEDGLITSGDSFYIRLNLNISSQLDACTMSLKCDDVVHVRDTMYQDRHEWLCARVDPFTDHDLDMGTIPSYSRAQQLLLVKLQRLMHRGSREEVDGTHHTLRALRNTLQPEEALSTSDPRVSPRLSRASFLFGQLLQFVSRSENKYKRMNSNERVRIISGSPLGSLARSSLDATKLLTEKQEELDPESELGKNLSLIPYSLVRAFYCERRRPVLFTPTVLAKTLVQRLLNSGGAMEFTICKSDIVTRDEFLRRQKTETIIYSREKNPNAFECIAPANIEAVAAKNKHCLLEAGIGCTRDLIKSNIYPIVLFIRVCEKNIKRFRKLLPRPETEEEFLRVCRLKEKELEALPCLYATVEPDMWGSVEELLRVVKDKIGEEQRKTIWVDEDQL

Experiment [3] concerns the target NOTCH1 (human (endogenous in Jurkat)) (UniProt P46531).

These are yes or no findings as the source states them, for the method shown. Binding seen in cells or lysates may run through a third protein. Some binding calls cover weakened binding; strength is not graded here.

For the substance “NOTCH1 (from UniProt P46531 19-2555) (receptor)”, the binding entry in experiment [1] and in experiment [2] was “binds” throughout.
Turning to “PKCθ (from UniProt Q04759 1-706) (enzyme)”, the binding result in experiment [3] is given as “binds”.
For the substance “intracellular domain of NOTCH1 (~110 kDa) (from UniProt P46531 1754-2555) (domain or fragment)”, the binding result in experiment [2] is given as “binds”.

For the origin of these results see article PMC4033603.
